Data reported in PubChem BioAssay AID206 (DTP/NCI, 2004).
The list is a part of this screen's results and no random one: its compounds were picked by chemical class. Not every dose and run of a compound is shown. T/C: endpoint of the treated group in % of that of the vehicle group. Schedule codes are those of the source, read here as Q, the interval in days (D) or hours (H), X, the number of doses. Some T/C values are marked as having no survivor count here; that says nothing about deaths at the dose. Some entries hold several experiments; their values stand side by side, smallest first.

Test system: nude mice, HT29 intrarenal xenograft, tumor weight T/C
Assay: NCI In Vivo Anticancer Drug Screen. Data for tumor model HT29;CX-1 Human Adenocarcinoma (MER+) (intrarenal inoculation) in NU/NU Swiss (nude) mice
Conditions: T/C endpoint: mean tumor weight change, higher T/C = larger tumour
Experimental: The antitumor activity of compounds was measured in mice bearing transplantable tumors. Survival or tumor size were measured and the results are expressed as the measurement made in the treated group (T) divided by the measurement made in the vehicle treated control group (C). The tumor model used in this assay is HT29;CX-1 Human Adenocarcinoma (MER+) (intrarenal inoculation) in NU/NU Swiss (nude) mice

[1] = dose: 0.12 mg/kg/injection, schedule: Q01DX010 (sc), vehicle: Klucel (hydroxypropylcellulose) (HPC), evaluated on day 20
[2] = dose: 0.25 mg/kg/injection, schedule: Q01DX010 (sc), vehicle: Klucel (hydroxypropylcellulose) (HPC), evaluated on day 20
[3] = dose: 0.5 mg/kg/injection, schedule: Q01DX010 (sc), vehicle: Klucel (hydroxypropylcellulose) (HPC), evaluated on day 20

In the case of CC1=C[C@H]2O[C@@H]3[C@H](O)[C@@H](O)[C@](C)([C@@]2(CO)CC1)[C@@]31CO1, the T/C (dose: 1.0 mg/kg/injection, schedule: Q01DX010 (sc), vehicle: saline, evaluated on day 20) is reported as 66 % of control [survivor count not shown] and the T/C (dose: 2.0 mg/kg/injection, schedule: Q01DX010 (sc), vehicle: saline, evaluated on day 20) is reported as 156 % of control [survivor count not shown].

CC1=CC2OC3CC4OC(=O)/C=C/C=C/C(C(C)O)OCC/C(C)=C/C(=O)OCC2(CC1)C4(C)C31CO1 (stereo unspecified) was tested, and the T/C (dose: 6.25 mg/kg/injection, schedule: Q01DX010 (sc), vehicle: saline with Tween-80, evaluated on day 11) was 145 % of control [survivor count not shown], the T/C (dose: 12.5 mg/kg/injection, schedule: Q01DX010 (sc), vehicle: saline with Tween-80, evaluated on day 11) was 108 % of control [survivor count not shown] and the T/C (dose: 25.0 mg/kg/injection, schedule: Q01DX010 (sc), vehicle: saline with Tween-80, evaluated on day 11) was 99 % of control [survivor count not shown].

For CC1=CC2OC3CC4OC(=O)/C=C/C=C/C(C(C)O)OCC(O)C(C)CC(=O)OCC2(CC1O)C4(C)C31CO1 (stereo unspecified), the T/C (dose: 0.06 mg/kg/injection, schedule: Q01DX010 (sc), vehicle: Klucel (hydroxypropylcellulose) (HPC), evaluated on day 20) was 52 % of control [survivor count not shown], the T/C [1] was 57 % of control [survivor count not shown] and the T/C [2] was 45 [survivor count not shown], 65 [survivor count not shown], 120 % of control [survivor count not shown]. The T/C [3] was 15 [survivor count not shown], 59 [survivor count not shown], 111 [survivor count not shown], 160 % of control [survivor count not shown] and the T/C (dose: 1.0 mg/kg/injection, schedule: Q01DX010 (sc), vehicle: Klucel (hydroxypropylcellulose) (HPC), evaluated on day 20) was 7 [survivor count not shown] and 76 % of control [survivor count not shown].

In the case of CC1=C[C@H]2O[C@@H]3C[C@H]4OC(=O)/C=C\C=C\C(C(C)O)OCC(O)C(C)CC(=O)OC[C@@]2(C[C@@H]1O)[C@]4(C)[C@@]31CO1 (stereo partly specified), the T/C [1] is reported as 23 % of control [survivor count not shown], the T/C [2] is reported as 54 % of control [survivor count not shown] and the T/C [3] is reported as 23 % of control [survivor count not shown].

For CC(=O)OCC12CCC(C)=CC1OC1C(O)C(OC(C)=O)C2(C)C12CO2 (stereo unspecified), the T/C (dose: 0.13 mg/kg/injection, schedule: Q01DX010 (sc), vehicle: saline, evaluated on day 11) was 53 % of control [survivor count not shown], the T/C (dose: 0.25 mg/kg/injection, schedule: Q01DX010 (sc), vehicle: saline, evaluated on day 11) was 80 % of control [survivor count not shown] and the T/C (dose: 0.5 mg/kg/injection, schedule: Q01DX010 (sc), vehicle: saline, evaluated on day 11) was 56 % of control [survivor count not shown].

For C[C@@H](O)[C@H]1/C=C/C=C\C(=O)O[C@@H]2C[C@H]3O[C@@H]4[C@@H]5OC5(C)CCC4(COC(=O)[C@H]4O[C@]4(C)[C@@H](O)CO1)[C@]2(C)[C@]31CO1 (stereo partly specified), the T/C (dose: 2.5 mg/kg/injection, schedule: Q01DX010 (sc), vehicle: saline + alcohol, evaluated on day 20) was 110 % of control [survivor count not shown], the T/C (dose: 5.0 mg/kg/injection, schedule: Q01DX010 (sc), vehicle: saline + alcohol, evaluated on day 20) was 157 % of control [survivor count not shown] and the T/C (dose: 20.0 mg/kg/injection, schedule: Q01DX010 (sc), vehicle: saline + alcohol, evaluated on day 20) was 190 % of control [survivor count not shown].

For CC(=O)OC[C@]12CC(=O)C(C)=C[C@H]1O[C@@H]1C(=O)[C@@H](OC(C)=O)[C@@]2(C)[C@@]12CO2, the T/C (dose: 2.0 mg/kg/injection, schedule: Q04DX004 (sc), vehicle: water, evaluated on day 15) was 109 % of control [survivor count not shown], the T/C (dose: 4.0 mg/kg/injection, schedule: Q04DX004 (sc), vehicle: water, evaluated on day 15) was 62 % of control [survivor count not shown] and the T/C (dose: 8.0 mg/kg/injection, schedule: Q04DX004 (sc), vehicle: water, evaluated on day 15) was 86 % of control [survivor count not shown].

CC1=C[C@H]2O[C@@H]3C[C@H]4OC(=O)/C=C\C=C\C(C(C)O)OCC[C@@H](C)[C@H](O)C(=O)OC[C@@]2(CC1)[C@]4(C)[C@]31CO1 (stereo partly specified) was tested, and the T/C (dose: 0.38 mg/kg/injection, schedule: Q04DX004 (sc), vehicle: saline with Tween-80, evaluated on day 15) was 149 % of control [survivor count not shown] and the T/C (dose: 3.0 mg/kg/injection, schedule: Q04DX004 (sc), vehicle: saline with Tween-80, evaluated on day 15) was 328 % of control [survivor count not shown].

C=C(C)C(=O)OCC12CCC(C)=CC1OC1C(=O)C(OC(=O)C(=C)C)C2(C)C12CO2 (stereo unspecified) was tested, and the T/C (dose: 2.0 mg/kg/injection, schedule: Q04DX004 (sc), vehicle: saline with Tween-80, evaluated on day 15) was 8 [survivor count not shown] and 43 % of control [survivor count not shown] and the T/C (dose: 4.0 mg/kg/injection, schedule: Q04DX004 (sc), vehicle: saline with Tween-80, evaluated on day 15) was 34 [survivor count not shown] and 56 % of control [survivor count not shown].
